Measurements: patent US11364222B2, “Combination therapy for treatment of cancer” (G1 Therapeutics, Inc., priority 2017, dated 2022)

Tested on: MCF-7 cells
Experiment: MCF7 7 day proliferation assay in the presence of 0.1 nM E2 (Hoechst DNA content)
Format: cell-based
Conditions: Homo sapiens, MCF7, 168 h, read-out: IC50, MCF7 proliferation

Compound CC/C(=C(\c1ccccc1)c1ccc(OCCN(C)C)cc1)c1ccccc1 [tamoxifen, Tamoxifen] has an IC50 of 985 nM.
